From the supplement of paper PMC6445147
This is a noisy data set.

B1: human tRNA-Pro; a variant is named by its letters at N, in order (parent)
chain: GGCTCGTTGGTCTAGNGGTATGATTCTCGCTTAGGGTGCGAGAGGTCCCGGGTTCNNATCCCGGACGAGCCC

Legend:
[1] = variants of: B1; assay: tRNA Pol-III promoter activity, log2 (circRNA frequency / plasmid DNA frequency) (log2 ratio); higher = stronger promoter activity; conditions: HEK293T; construct: no Pol-II promoter ((-)CMV library)
[2] = variants of: B1; assay: tRNA 3' processing efficiency (processed reads / all reads, maximum-likelihood estimate) (fraction); higher = more efficient 3' processing; conditions: HEK293T; construct: no Pol-II promoter ((-)CMV library)
[3] = variants of: B1; assay: tRNA 5' processing efficiency (processed reads / all reads, maximum-likelihood estimate) (fraction); higher = more efficient 5' processing; conditions: HEK293T; construct: CMV Pol-II promoter ((+)CMV library, decapped)

Variant	tRNA Pol-III promoter activity (log2) [1]	tRNA 3' processing efficiency [2]	tRNA 5' processing efficiency [3]
AAT A14T A58G	5.34	0.5	
GAT G15A G18A	2.47	0.45	
GAG G18T A20C	4.74	0.14	
GAG G15C G18A	3.13	0.5	
TAT A20G	3.2	0.33	
TAT A20T	2.54	0.5	
GAG G35A	4.25	0.2	
GAT A14T G18A A20T	6.03	0.25	
GAG T8A C55A	3.36	0.5	
GAG G17C G18A T19C	6.36	0.4	
GAT A14G T19A	3.81	0.5	
GAG T19A	3.34	0.45	
GAG T19C	2.9	0.39	
GAG T19G	2.16	0.32	
GAT G15A T59C	3.71	0.25	
AAT A20T	2.49	0.43	0.06
AAT A20C	3.09	0.42	
GAT G2A	4.45	0.25	
GAT G9A G17A	1.48	0.25	
GAT A14T T59A	2.93	0.25	
GAT A14T T59C	3.14	0.14	
CAT A14C G15T	4.26	0.4	
GAT G9A A20T	3.53	0.33	

Variant	tRNA Pol-III promoter activity (log2) [1]	tRNA 3' processing efficiency [2]	tRNA 5' processing efficiency [3]
TAT A14C	2.84	0.57	
TAT A14T	4.08	0.21	
TAT A14G	3.73	0.24	
AAG T8C	5.2	0.11	
TAG G15T	3.14	0.15	
GAG T19C A58T	4.36	0.5	
GAG T19C A58G	5.53	0.33	
GAT A14C G15C	4.27	0.14	
GAT A14G T19A A20C	6.84	0.57	
TAT G9T	2.05	0.25	
TAT G9A	3.89	0.5	
CAG T53C	5.67	0.65	
GAT A14C G15C G18T	3.71	0.33	
GAT A14C T59G	3.34	0.33	
GAT A14C T59C	4.84	0.27	
GAT A14C T19C A58G	6.51	0.17	
GAT A14G A58T	2.39	0.5	
GAT A14G A58G	3.55	0.2	
GAG G17T A58T	3.23	0.13	
GAG T19G T54A	3.23	0.25	
GAG T8C A58C	4.16	0.29	
GAG T8C A58G	1.76	0.25	
GAG T8C A58T	2.04	0.25	

Another view of part of the listing above:

| Variant | tRNA Pol-III promoter activity (log2) [1] | tRNA 3' processing efficiency [2] | tRNA 5' processing efficiency [3] |
| --- | --- | --- | --- |
| TAG G15T | 3.14 | 0.15 |  |
| GAG T19C A58T | 4.36 | 0.5 |  |
| GAG T19C A58G | 5.53 | 0.33 |  |

(further entries)

Variant	tRNA Pol-III promoter activity (log2) [1]	tRNA 3' processing efficiency [2]	tRNA 5' processing efficiency [3]
TAT A58G	3.39	0.22	
TAT A58T	4.52	0.71	
TAT A58C	2.33	0.25	
TAG G17T A58T	4.16	0.29	
GAG G17A G18T	4.03	0.25	
AAG T19A A20T	5.93	0.38	
GAT A58T T59A	4.67	0.67	
GAT A58T T59C	3.67	0.2	
CAG T8G	3.29	0.14	
CAG T8C	3.55	0.2	
GAT G9T A14G G15A	6.03	0.34	
AAG T8C A14T	6.25	0.2	
CAT G9A	4.34	0.25	
CAT G9T	2.3	0.13	
TAT A14G A58G	4.94	0.2	
TAT A14C T21C	6.53	0.67	
GAT A20T T59C	2.9	0.25	
AAG T19C A58C	5.51	0.5	
GAG T19G A58C	3.03	0.25	
GAG T8C A14G	5.25	0.2	
GAG T8C A14C	3.62	0.25	
GAG T8C A14T	4.03	0.15	
GAT A20G	1.58	0.45	0.29

Variant	tRNA Pol-III promoter activity (log2) [1]	tRNA 3' processing efficiency [2]	tRNA 5' processing efficiency [3]
GAT A20C	0.66	0.44	
GAT A20T	0.738	0.27	
GAT A14T A58G	3.72	0.5	
GAT	3.76	0.34	0.18
CAT A20T	1.64	0.33	
CAT A20G	3.93	0.25	
GAT G9A G17T C55G A58C	4.13	0.5	
GAT G9A A58T	1.51	0.17	
GAT G9A A58C	2.81	0.33	
GAT A14G T59C	3.52	0.29	
GAT G9A T59C	3.8	0.2	
GAT G9T A58G	3.06	0.4	
TAG T8C	3.14	0.32	
TAG T8G	3.13	0.25	
GAT A14C G15T A58T	6.36	0.2	
TAG G17T	7.65	0.03	
GAT A14G G17T	3.04	0.29	
GAT A14G G17A	4.21	0.14	
GAT A14G G17C	5.03	0.24	
TAG T8A A14T	3.68	0.4	
TAT G15C	5.22	0.41	
TAT G15A	3.51	0.28	0.03
GAG T8G A58C	6.25	0.8	

Variant	tRNA Pol-III promoter activity (log2) [1]	tRNA 3' processing efficiency [2]	tRNA 5' processing efficiency [3]
CAT A14T	5.01	0.37	
CAT A14G	5.38	0.23	
CAT A14C	4.73	0.75	
TAG T59G	2.93	0.17	
TAG T59A	5.36	0.3	
GAG T53A T59A	5.91	0.55	
GAG T53A T59C	4.14	0.3	
GAT G9C G18A	3.41	0.22	
GAT G9A T19G	4.61	0.62	
GAG G17A T59A	3.93	0.55	
GAG G15C T59C	6.08	0.25	
AAG T8G A14C G17T A58T	7.64	0.92	
GAG T19G A20G	3.4	0.22	
GAG T8G G15C	4.86	0.36	
GAT A20G A58G	3.93	0.33	
CAG T19G	4.36	0.25	
CAG T19A	6.25	0.2	
GAT A20T A58T	1.08	0.25	
GAG G18A T19A	3.26	0.43	
GAG G18A T19C	2.79	0.4	
GAG G18T	1.26	0.51	
GAG G18A	1.69	0.54	0.33
GAG G18C	0.227	0.2	
